From paper PMC9900698, “Phosphorylation Regulation of a Histone-like HU Protein from Deinococcus radiodurans”

Target: T1, DrHU WT (Deinococcus radiodurans R1 (ATCC13939)) (UniProt Q9RZ89)
T1 sequence (looked up): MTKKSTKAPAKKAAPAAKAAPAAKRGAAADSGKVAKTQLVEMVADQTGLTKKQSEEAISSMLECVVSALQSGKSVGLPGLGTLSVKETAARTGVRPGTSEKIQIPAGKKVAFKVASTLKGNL
Assay: hydroxyl radical protection
Details: recombinant protein, residues 1-122, protein details: N-terminal His-MBP (pET28a-HMT), removed by TEV

## AAGCTTGCCACCATGTACCCATACGACGTACCAGATTACGCTTTCATCAACGGCTACGCCCCTCAGAATCTGAGCATCAGAGGCGAGTACCAGATCAACTTTCACATCGTGAACTGGAATCTGTCCAACCCTGACCCCACCTCCAGCGAGTACATCACCCTGCTGAGAGATATCCAGGACAAGGTGACAACACTGTACAAGGGCTCCCAGCTGCACGATACCTTCAGATTTTGCCTGGTGACAAATCTGACAATGGATTCCGTGCTGGTGACCGTGAAGGCCCTGTTTAGCTCCAACCTGGACCCCTCCCTGGTGGAGCAGGTGTTCCTGGACAAGACACTGAACGCCAGCTTTCACTGGCTGGGCTCCACCTACCAGCTGGTGGACATCCACGTGACAGAGATGGAGAGCAGCGTGTACCAGCCTACCAGCTCCTCCAGCACCCAGCACTTTTACCTGAATTTCACAATCACCAACCTGCCTTACAGCCAGGACAAGGCCCAGCCCGGCACAACCAACTACCAGAGAAACAAGAGGAATATCGAGGACGCCCTGAATCAGCTGTTCAGGAACTCCAGCATCAAGTCCTACTTTTCCGATTGCCAGGTGTCCACCTTTAGAAGCGTGCCTAATAGACACCACACCGGCGTGGATAGCCTGTGTAATTTTTCCCCCCTGGCCAGAAGAGTGGACAGGGTGGCCATCTACGAGGAGTTTCTGAGAATGACCAGAAACGGCACCCAGCTGCAGAATTTTACCCTGGATAGAAGCTCCGTGCTGGTCGATGGCTACAGCCCTAACAGAAATGAGCCCCTGACCGGCAATTCCGATCTGCCTTTCTGGGCCGTGATCCTGATCGGCCTGGCCGGCCTGCTGGGCGTTATCACATGCCTGATCTGTGGCGTGCTGGTGACAACAAGAAGGAGGAAGAAGGAGGGCGAGTACAATGTGCAGCAGCAGTGCCCCGGCTACTACCAGTCCCACCTGGACCTGGAGGATCTGCAGGATTACAAGGACGACGATGACAAG (double strand) [1-kb duplex DNA]
  binding result: binds

For at least one entry, the source does not settle the construct or the ends of the probe. At least one verdict rests on a figure or table, not on a statement of the authors. Where a protein sequence is shown, tags need not be part of it.
